{"source": "patent US20230151437A1", "about": "“USE OF PROTEIN ASSEMBLIES TO RECORD CELLULAR EVENTS” (President and Fellows of Harvard College, priority 2021, published 2023)", "molecules": {"B1": {"name": "iPAK4: fusion of the catalytic domain of the Pak4 kinase and the 38 amino acid iBox domain of its inhibitor Inka1 (SEQ ID NO: 1) (protein)", "chain": "MDYKDDDDKSGSEAEDWTAALLNRGRSRQPLVLGDNCFADLVHNWMELPEEFPAAPAVPGPPGPRSPQREPQRVSHEQFRAALQLVVDPGDPRSYLDNFIKIGEGSTGIVCIATVRSSGKLVAVKKMDLRKQQRRELLFNEVVIMRDYQHENVVEMYNSYLVGDELWVVMEFLEGGALTDIVTHTRMNEEQIAAVCLAVLQALSVLHAQGVIHRDIKSDSILLTHDGRVKLSDFGFCAQVSKEVPRRKSLVGTPYWMAPELISRLPYGPEVDIWSLGIMVIEMVDGEPPYFNEPPLKAMKMIRDNLPPRLKNLHKVSPSLKGFLDRLLVRDPAQRATAAELLKHPFLAKAGPPASIVPLMRQNRTR"}}, "key": {"[1]": {"tested_on": "HEK cells", "assay": "Time-lapse microscopy of iPAK4 assembly nucleation and growth in HEK cells", "type": "cell-based"}, "[2]": {"tested_on": "primary neuron culture", "assay": "Time-lapse imaging of iPAK4 assembly growth in primary neuron culture", "type": "cell-based, rat"}, "[3]": {"tested_on": "HEK cells", "assay": "HT dye switch fluorescence profiles of HT-iPAK4 assemblies in HEK cells", "type": "cell-based", "method": "To test whether assemblies could encode HT dye timestamps, HEK cells growing HT-iPAK4 assemblies were successively washed with different colors of HT-ligand dyes at Δt=2 h intervals in the sequence JF503, JF669, JFX608, JF503, JF669 (FIG. 2A; see FIGS. 11A-11B for dye structures, photophysical properties, and synthesis of JFX608). The cells were then fixed and imaged with spectrally resolved confocal microscopy. Clear progression of colored bands matching the sequence of dye additions was observed.\nTo test the limits of how fast dye transitions could be encoded, assemblies were made with seven dye switches at Δt=1 h. At this short interval, peaks were still visible, but their amplitude was suppressed relative to the parts of the assembly with no dye switches, indicating incomplete transitions in dye labeling (FIG. 12E).\nA protein ticker tape may stably store its information for extended times. Since the iPAK4 assemblies were held together by non-covalent interactions, it was tested whether monomer exchange blurred the HT dye boundaries over time. Two dishes were exposed to the same sequence of dye switches at intervals of Δt=2 h. One dish was fixed at t=8 h, and the other was returned to the incubator and fixed a day later at t=30 h. The fluorescence profiles for the section of the assemblies that grew concurrently (from t=0 to 8 h) were then compared. The mean profiles were nearly indistinguishable between the early dish (N=22 assemblies) and the late dish (N=12 assemblies) (FIG. 2E). Thus, monomer exchange was negligible over one day.\nThe precision with which the timing of cellular events could be identified was studied next. […]\nImage processing and data analysis: Images of individual assemblies were rotated to align the long axis to the x-axis. Fluorescence profiles were then calculated as the median fluorescence in each spectral channel across the width of the assembly. […] Dye transitions were identified as local maxima in the second derivative of the dye fluorescence as a function of position. […]"}}, "note": "Several values for one entry are separate records, joined by “and”; a condition that tells them apart may be missing. Equal entries are not always repeated."}
{"molecule": "B1", "values": [{"measurement": "initial assembly growth rate upon nucleation", "setting": "[1]", "result": "~0.5", "unit": "μm/min"}, {"measurement": "linear-phase assembly growth rate", "setting": "[1]", "result": "1-2 μm/h and 1.46±0.64 μm/h"}, {"measurement": "assembly-containing cells with only one assembly", "setting": "[1]; 288 of 333 cells", "result": 86, "unit": "%"}, {"measurement": "onset of assembly growth after transfection", "setting": "[1]; CMV::iPAK4 (95%) and CMV::HT-iPAK4 (5%)", "result": "14 to 20", "unit": "h"}, {"measurement": "length of assemblies at the end of the nucleation phase", "setting": "[1]; mean±s.d., n=46", "result": "26±7", "unit": "μm"}, {"measurement": "neurons with assemblies that had only one assembly", "setting": "[2]", "result": 73, "unit": "%"}, {"measurement": "growth rate in the linear phase", "setting": "[2]; neurons", "result": "2.5±1.5", "unit": "μm/h"}, {"measurement": "assembly length at onset of linear growth", "setting": "[2]; neurons, mean±s.d., N=22", "result": "31±12", "unit": "μm"}, {"measurement": "assembly growth rate between timestamps", "setting": "[3]; 10 h interval between JF669 and JF525, mean±s.d., N=223", "result": "1.1±0.58", "unit": "μm/s"}, {"measurement": "growth rate on slower-growing end relative to faster-growing end", "setting": "[3]; N=153 assemblies, 95% C.I.", "result": "0.77±0.05", "unit": "fold"}, {"measurement": "speed of slower-growing end relative to faster end", "setting": "[3]; mean±s.d., N=17 assemblies", "result": "62±19", "unit": "%"}]}
